This passage reports binding results from paper PMC3967986.

Assay [1] deals with NAC089 (yeast two-hybrid fusion) (Arabidopsis thaliana) (UniProt Q94F58). As to the kind of experiment: two-hybrid; yeast 2-hybrid assay of NAC089 dimer formation (Figure S3C-D); constructs and reporters not described.
Assay [2] has as its target NAC089 (BiFC fusion) (Arabidopsis thaliana) (UniProt Q94F58). Kind of assay: split reporter; BiFC of NAC089 dimer formation (Figure S3E-F), seen by laser confocal fluorescence microscopy (Zeiss LSM A710); host cells not stated.

These are yes or no findings as the source states them, for the method shown. For some assays here: Binding seen in cells or lysates may run through a third protein. Some results given as binding are weak or reduced against the parent protein; the word gives no strength. Tags and fused reporters may be left off the sequences shown.

B1: NAC089 (yeast two-hybrid fusion) (protein, UniProt Q94F58 1-340)
chain: MDTKAVGVSKDTAASMEASTVFPGFKFSPTDVELISYYLKRKMDGLERSVEVIPDLEIYNFEPWDLPDKSIVKSDSEWFFFCARGKKYPHGSQNRRATKMGYWKATGKERDVKSGSEVIGTKRTLVFHIGRAPKGERTDWIMHEYCVKGVSLDDAMVVCRVRRNKEYNSGTSQKAPKPNSSAEKHAKVQNGATSSGSPSDWDNLVDFYLAGESGEKLLAEMAESSENLQVDNDEDFFADILRDEIINLDEAVMTGNTPNEVPTLESASMEIRVLPLPNMIDKQMSSLLEERPSQKKKGKDATESLSSCFVGLYSIKSVNKARWDVIIGVVALIAMLFYLE
Turning to B1, the binding result in assay [1] was “binds”.

B2: NAC089 (BiFC fusion) (protein, UniProt Q94F58 1-340)
chain: B1 chain
On to B2, for which the binding result in assay [2] is recorded as “binds”.
